Construct, isoform or probe ends are uncertain for at least one entry. Results from cells or extracts need not show a direct contact. Where a protein sequence is shown, tags need not be part of it.
Molecular target: T1, hnRNP H (U87 nuclear extract, identified by anti-hnRNP H IP) (UniProt P31943)
T1 sequence (looked up): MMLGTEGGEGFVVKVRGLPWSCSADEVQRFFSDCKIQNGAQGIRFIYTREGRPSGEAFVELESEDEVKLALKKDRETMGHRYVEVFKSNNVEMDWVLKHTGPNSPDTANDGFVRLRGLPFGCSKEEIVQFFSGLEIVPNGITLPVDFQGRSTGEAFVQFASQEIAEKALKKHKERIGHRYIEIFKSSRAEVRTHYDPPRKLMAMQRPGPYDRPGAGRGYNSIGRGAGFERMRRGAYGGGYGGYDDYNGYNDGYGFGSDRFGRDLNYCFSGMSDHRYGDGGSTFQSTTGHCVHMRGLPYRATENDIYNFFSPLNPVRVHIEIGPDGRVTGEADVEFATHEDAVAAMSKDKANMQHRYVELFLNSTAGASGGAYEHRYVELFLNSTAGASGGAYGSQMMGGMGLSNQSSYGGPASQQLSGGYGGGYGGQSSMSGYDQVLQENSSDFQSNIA
Experiment: UV crosslinking + IP
Conditions: RNase treated, UV crosslinking: ~1 nM RNA in U87 nuclear extract, protein in an extract, residues 1-449

## GGGGCCGGGGCCGGGGCCGGGGCCGGGGCCGGGGCCGGGGCCGGGGCCGGGGCCGGGGCC [10R-7dG]
50 kDa species IPed, higher MW species not, all G replaced by 7-deaza-G (transcribed with 7-deaza-GTP), label: 32P-CTP
  binding result: binds

## GGGGCCGGGGCCGGGGCCGGGGCCGGGGCCGGGGCCGGGGCCGGGGCCGGGGCCGGGGCC [10R-G7dG]
7-deaza-G with trace 32P-G, label: 32P-GTP
  binding result: binds

## GGGGCCGGGGCCGGGGCCGGGGCCGGGGCCGGGGCCGGGGCCGGGGCCGGGGCCGGGGCC [10R-G]
label: 32P-GTP
  binding result: binds

From PMC5050020, “The C9ORF72 GGGGCC expansion forms RNA G-quadruplex inclusions and sequesters hnRNP H to disrupt splicing in ALS brains”
